Measurements reported in PubChem BioAssay AID743121 (NCATS, 2013).

Screen: 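Genes whose silencing strengthens cell killing by camptothecin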 (primary screen)
Cell system: MDA-MB-231 cells, a human breast cancer line
Reagent: single siRNA against human genes, 20 nM siRNA (0.8 pmol per well)
Time to read-out: 120 h (drug added 48 h after transfection, read 72 h later)
Challenge: camptothecin 20 nM (about EC30) for 72 h; vehicle 0.1% DMSO in parallel plates
Measured: 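Cell viability by ATP luminescence (CellTiter-Glo) as % of non-targeting siRNA wells, and the log2 ratio of viability without drug over viability with camptothecin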
Scale: log2 vehicle/camptothecin viability: higher = stronger sensitisation to camptothecin; viability with camptothecin and viability without drug: higher = more viable cells
Call rule: 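Each gene scored by redundant siRNA activity (RSA) over its individual siRNA ratios; a gene is called active at p < 0.001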
The deposit covers about 26,000 reagents; below is a random part of them. Of all reagents, 167 (0.63%) got an active call. 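Calls are per gene from RSA p-values that are not deposited; an individual active-marked siRNA can sensitise only weakly.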 Entries without a mark were called inactive. Reagents against one gene are numbered here.

no.	gene symbol	siRNA no.	log2 vehicle/camptothecin viability	viability with camptothecin (% of control)	viability without drug (% of control)
1	KIF2B (kinesin family member 2B)	1	-0.225	60.1	51.4
2	KIF2B (kinesin family member 2B)	2	0.833	19.7	35.1
3	KIF2B (kinesin family member 2B)	3	-0.481	71.4	51.1
4	KIF2B (kinesin family member 2B)	4	-0.117	88.8	81.9
5	GNAQ (G protein subunit alpha q)	1	-0.474	96	69.1
6	GNAQ (G protein subunit alpha q)	2	-0.303	66.2	53.7
7	GNAQ (G protein subunit alpha q)	3	-0.095	114	107
8	GNAQ (G protein subunit alpha q)	4	-0.12	90.4	83.2
9	SFRP5 (secreted frizzled related protein 5)	1	-0.367	85.4	66.3
10	SFRP5 (secreted frizzled related protein 5)	2	-0.0238	86.5	85.1
11	SFRP5 (secreted frizzled related protein 5)	3	0.0541	56.4	58.5
12	SFRP5 (secreted frizzled related protein 5)	4	0.117	42.9	46.6
13	TRIM26 (tripartite motif containing 26)	1	0.0306	48	49
14	TRIM26 (tripartite motif containing 26)	2	-0.327	90.7	72.3
15	TRIM26 (tripartite motif containing 26)	3	0.465	69.3	95.7
16	TRIM50 (tripartite motif containing 50)	1	-0.038	94.2	91.8
17	TRIM50 (tripartite motif containing 50)	2	-0.663	39	24.7
18	TRIM50 (tripartite motif containing 50)	3	-0.682	16.7	10.4
19	IER3 (immediate early response 3)	1	-0.303	62.7	50.9
20	IER3 (immediate early response 3)	2	-0.13	88.5	80.9
21	IER3 (immediate early response 3)	3	-0.178	60.5	53.5
22	IER3 (immediate early response 3)	4	-0.398	85.4	64.8
23	RNF39 (ring finger protein 39)	1	0.613	24.1	36.8
24	RNF39 (ring finger protein 39)	2	0.0206	85	86.2
25	RNF39 (ring finger protein 39)	3	-0.16	109	97.6
26	BBC3 (BCL2 binding component 3)	1	0.949	15.5	29.9
27	BBC3 (BCL2 binding component 3)	2	0.0507	100	104
28	BBC3 (BCL2 binding component 3)	3	-0.0438	101	97.5
29	BBC3 (BCL2 binding component 3)	4	0.0934	48.3	51.5
30	CETN1 (centrin 1)	1	-0.436	104	77
31	CETN1 (centrin 1)	2	-0.303	99.8	80.9
32	CETN1 (centrin 1)	3	-0.0842	84	79.2
33	RAB10 (RAB10, member RAS oncogene family)	1	-0.018	76.3	75.3
34	RAB10 (RAB10, member RAS oncogene family)	2	0.0459	79.6	82.2
35	RAB10 (RAB10, member RAS oncogene family)	3	-0.406	51.8	39.1
36	RAB10 (RAB10, member RAS oncogene family)	4	-0.131	110	100
37	SLC10A2	1	-0.164	103	92.3
38	SLC10A2	2	-0.236	35.4	30
39	SLC10A2	3	0.00354	9.85	9.87
40	SLC10A2	4	-0.377	97	74.8
41	CYP39A1 (cytochrome P450 family 39 subfamily A member 1)	1	-0.336	114	90.2
42	CYP39A1 (cytochrome P450 family 39 subfamily A member 1)	2	0.0437	81.2	83.7
43	CYP39A1 (cytochrome P450 family 39 subfamily A member 1)	3	-0.38	99.6	76.5
44	CYP39A1 (cytochrome P450 family 39 subfamily A member 1)	4	-0.243	74.7	63.2
45	IGSF21 (immunoglobin superfamily member 21)	1	0.0512	44.9	46.6
46	IGSF21 (immunoglobin superfamily member 21)	2	-0.35	129	101
47	IGSF21 (immunoglobin superfamily member 21)	3	0.00328	46.9	47
48	IGSF21 (immunoglobin superfamily member 21)	4	-0.00332	36.5	36.5
49	CPXM2 (carboxypeptidase X, M14 family member 2)	1	-0.0731	97.6	92.8
50	CPXM2 (carboxypeptidase X, M14 family member 2)	2	-0.24	59.8	50.6
51	CPXM2 (carboxypeptidase X, M14 family member 2)	3	-0.0194	108	107
52	CPXM2 (carboxypeptidase X, M14 family member 2)	4	-0.0147	60.3	59.6
53	PECR (peroxisomal trans-2-enoyl-CoA reductase)	1	-0.111	116	107
54	PECR (peroxisomal trans-2-enoyl-CoA reductase)	2	-0.428	87.3	64.9
55	PECR (peroxisomal trans-2-enoyl-CoA reductase)	3	0.00386	83	83.3
56	PECR (peroxisomal trans-2-enoyl-CoA reductase)	4	-0.297	94.1	76.6
57	SH2D3C (SH2 domain containing 3C)	1	-0.215	58.8	50.6
58	SH2D3C (SH2 domain containing 3C)	2	-0.0647	86.6	82.8
59	SH2D3C (SH2 domain containing 3C)	3	-0.575	49.2	33
60	SH2D3C (SH2 domain containing 3C)	4	-0.405	50.5	38.1
61	NME7 (NME/NM23 family member 7)	1	0.124	92.7	101
62	NME7 (NME/NM23 family member 7)	2	-0.353	58.8	46
63	NME7 (NME/NM23 family member 7)	3	-0.362	43.1	33.5
64	NME7 (NME/NM23 family member 7)	4	-0.691	82.7	51.3
65	FUCA2 (alpha-L-fucosidase 2)	1	-0.155	82.5	74
66	FUCA2 (alpha-L-fucosidase 2)	2	-0.211	35.7	30.9
67	FUCA2 (alpha-L-fucosidase 2)	3	-0.103	122	114
68	FUCA2 (alpha-L-fucosidase 2)	4	0.248	33.9	40.3
69	PCCB (propionyl-CoA carboxylase subunit beta)	1	-0.211	98.3	85
70	PCCB (propionyl-CoA carboxylase subunit beta)	2	0.105	65.7	70.7
71	PCCB (propionyl-CoA carboxylase subunit beta)	3	-0.454	51.6	37.7
72	PCCB (propionyl-CoA carboxylase subunit beta)	4	-0.131	81.6	74.5
73	ACKR4 (atypical chemokine receptor 4)	1	-0.2	46.9	40.8
74	ACKR4 (atypical chemokine receptor 4)	2	-0.0503	74.2	71.6
75	ACKR4 (atypical chemokine receptor 4)	3	-0.375	94.7	73
76	ACKR4 (atypical chemokine receptor 4)	4	0.00246	98.6	98.8
77	ADCK2 (aarF domain containing kinase 2)	1	0.0275	92.5	94.2
78	ADCK2 (aarF domain containing kinase 2)	2	-0.19	121	106
79	ADCK2 (aarF domain containing kinase 2)	3	-0.106	55.3	51.4
80	ADCK2 (aarF domain containing kinase 2)	4	-0.671	84.6	53.1
81	MS4A7 (membrane spanning 4-domains A7)	1	-0.193	58.9	51.5
82	MS4A7 (membrane spanning 4-domains A7)	2	0.0742	87.5	92.2
83	MS4A7 (membrane spanning 4-domains A7)	3	-0.148	98.1	88.5
84	MS4A7 (membrane spanning 4-domains A7)	4	-0.511	115	80.4
85	ADGRG6 (adhesion G protein-coupled receptor G6)	1	-0.327	86	68.5
86	ADGRG6 (adhesion G protein-coupled receptor G6)	2	-0.285	121	99.2
87	ADGRG6 (adhesion G protein-coupled receptor G6)	3	-0.0812	82.9	78.3
88	ADGRG6 (adhesion G protein-coupled receptor G6)	4	-0.613	110	72
